Tested on: NB tumor cell gene expression
Experiment: Eukaryotic mRNA-seq of xenograft tumors
Type: in vivo, mouse
Details: NB transcripts (uniquely human), two-fold, adjusted P<0.05, vs control tumors
Source text: (FIG. 17A) Tumors recovered from mice in FIG. 16 were snap frozen in OTC media, thin sectioned, and stained for murine CD31 expression (red) and DAPI counterstain (blue). Results shown are representative images from five fields of view (FOVs) per tumor, with five tumors per group. Scale bar 50 μm. (FIG. 17B) Total number of CD31+ regions per FOV with box and whisker plot showing quartiles±range (Ctrl n=15, Etan n=25). (FIG. 17C) Size of each CD31+ area quantified per FOV; shown is median CD31+ area per FOV with box and whisker plot showing quartiles±range (Ctrl n=15, Etan n=25) (FIG. 17D) Longest distance across each CD31+ area (Max Feret distance) per FOV; shown is median distance per FOV with box and whisker plot showing quartiles±range (Ctrl n=15, Etan n=25). […]
Total RNA from cell pellets was isolated using the RNeasy Micro Plus Kit (Qiagen). […] Relative changes in gene expression were calculated based on the ΔCt method using housekeeping gene GAPDH as control. […]
Eukaryotic mRNA sequencing with 30M depth and 150 paired end reads was performed by Novogene, Inc. Quality control checks on FASTQ sequencing files were performed by FastQC (v0.11.2, https://www.bioinformatics.babraham.ac.uk/projects/fastqc/). Reads were then aligned to human (GRCh38, Ensembl release version 84) or mouse (GRCm38, Ensembl release version 81) reference genomes separately by hisat2 v2.1.0(51). […]

etanercept
genes downregulated in treated tumors: 117 genes
genes upregulated in treated tumors: 138 genes
